Source: publication PMC1762433

The chains behind the UniProt entries cited, without tags or fusion partners. Where a name states a change or a piece, a line headed by the entry shows the natural chain unless it says otherwise.
UniProt Q8N3Y1: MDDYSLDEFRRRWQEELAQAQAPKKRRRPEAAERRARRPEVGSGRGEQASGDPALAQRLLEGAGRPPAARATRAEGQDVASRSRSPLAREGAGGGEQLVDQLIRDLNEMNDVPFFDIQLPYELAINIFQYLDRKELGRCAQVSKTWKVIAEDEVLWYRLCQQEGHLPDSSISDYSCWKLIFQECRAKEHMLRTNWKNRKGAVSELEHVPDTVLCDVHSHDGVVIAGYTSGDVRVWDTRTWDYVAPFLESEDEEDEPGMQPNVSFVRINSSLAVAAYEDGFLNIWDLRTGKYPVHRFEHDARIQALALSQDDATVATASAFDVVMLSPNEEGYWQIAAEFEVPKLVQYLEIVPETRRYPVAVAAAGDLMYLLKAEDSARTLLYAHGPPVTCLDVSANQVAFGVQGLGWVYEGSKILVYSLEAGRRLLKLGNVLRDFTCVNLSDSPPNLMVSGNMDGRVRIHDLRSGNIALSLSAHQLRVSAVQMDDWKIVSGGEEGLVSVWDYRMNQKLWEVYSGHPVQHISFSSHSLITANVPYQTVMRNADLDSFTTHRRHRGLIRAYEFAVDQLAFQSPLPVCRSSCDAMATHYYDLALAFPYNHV
UniProt Q14999: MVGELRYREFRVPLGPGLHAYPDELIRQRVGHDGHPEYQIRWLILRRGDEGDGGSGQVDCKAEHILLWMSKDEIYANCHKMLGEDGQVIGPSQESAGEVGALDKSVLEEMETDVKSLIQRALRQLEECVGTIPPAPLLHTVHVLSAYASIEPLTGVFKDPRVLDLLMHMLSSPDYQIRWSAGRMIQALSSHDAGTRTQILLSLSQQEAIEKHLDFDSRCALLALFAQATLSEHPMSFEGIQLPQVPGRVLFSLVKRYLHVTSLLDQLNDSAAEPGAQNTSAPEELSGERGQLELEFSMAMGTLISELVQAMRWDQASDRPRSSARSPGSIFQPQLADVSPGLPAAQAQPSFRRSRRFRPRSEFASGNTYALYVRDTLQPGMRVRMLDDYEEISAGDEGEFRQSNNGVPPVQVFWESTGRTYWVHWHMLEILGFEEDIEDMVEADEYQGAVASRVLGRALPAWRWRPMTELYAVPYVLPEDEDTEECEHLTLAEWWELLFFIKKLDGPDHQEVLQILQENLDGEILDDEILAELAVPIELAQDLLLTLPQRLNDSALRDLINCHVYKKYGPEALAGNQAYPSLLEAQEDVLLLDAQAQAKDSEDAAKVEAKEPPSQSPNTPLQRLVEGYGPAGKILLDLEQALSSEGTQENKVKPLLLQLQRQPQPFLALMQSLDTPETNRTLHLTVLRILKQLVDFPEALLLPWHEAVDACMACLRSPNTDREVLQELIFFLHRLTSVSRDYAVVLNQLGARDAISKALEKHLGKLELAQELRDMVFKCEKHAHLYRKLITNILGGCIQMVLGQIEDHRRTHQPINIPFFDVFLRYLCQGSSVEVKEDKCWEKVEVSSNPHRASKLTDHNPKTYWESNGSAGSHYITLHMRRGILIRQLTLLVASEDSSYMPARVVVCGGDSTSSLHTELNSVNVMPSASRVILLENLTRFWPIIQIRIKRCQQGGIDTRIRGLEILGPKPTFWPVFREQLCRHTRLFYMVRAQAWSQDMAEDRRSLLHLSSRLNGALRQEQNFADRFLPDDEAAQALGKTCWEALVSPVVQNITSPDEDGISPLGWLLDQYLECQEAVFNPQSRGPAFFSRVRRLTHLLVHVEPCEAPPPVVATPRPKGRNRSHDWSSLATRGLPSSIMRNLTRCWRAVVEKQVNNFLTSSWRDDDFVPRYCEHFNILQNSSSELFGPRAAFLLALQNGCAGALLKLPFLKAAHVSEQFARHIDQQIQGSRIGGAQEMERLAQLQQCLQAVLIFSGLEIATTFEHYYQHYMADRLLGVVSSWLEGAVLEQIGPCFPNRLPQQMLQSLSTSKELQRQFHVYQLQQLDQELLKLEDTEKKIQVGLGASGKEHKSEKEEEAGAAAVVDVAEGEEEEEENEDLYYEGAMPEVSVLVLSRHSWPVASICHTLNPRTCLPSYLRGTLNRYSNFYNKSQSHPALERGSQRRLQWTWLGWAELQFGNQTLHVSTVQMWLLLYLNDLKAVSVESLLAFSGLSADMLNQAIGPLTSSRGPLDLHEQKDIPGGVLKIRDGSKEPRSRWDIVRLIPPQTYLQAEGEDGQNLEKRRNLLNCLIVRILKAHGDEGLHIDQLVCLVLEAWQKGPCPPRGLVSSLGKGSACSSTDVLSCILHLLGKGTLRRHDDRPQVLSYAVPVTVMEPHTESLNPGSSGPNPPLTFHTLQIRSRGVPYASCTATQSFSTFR
UniProt P24385: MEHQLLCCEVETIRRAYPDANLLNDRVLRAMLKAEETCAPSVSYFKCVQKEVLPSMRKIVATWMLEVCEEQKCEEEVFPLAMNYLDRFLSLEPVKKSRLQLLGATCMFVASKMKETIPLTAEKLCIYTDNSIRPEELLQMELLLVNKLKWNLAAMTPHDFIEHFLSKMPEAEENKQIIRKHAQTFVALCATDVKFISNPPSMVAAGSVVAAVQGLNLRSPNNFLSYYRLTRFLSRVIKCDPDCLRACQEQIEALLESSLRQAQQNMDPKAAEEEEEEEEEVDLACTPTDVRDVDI
UniProt P63208: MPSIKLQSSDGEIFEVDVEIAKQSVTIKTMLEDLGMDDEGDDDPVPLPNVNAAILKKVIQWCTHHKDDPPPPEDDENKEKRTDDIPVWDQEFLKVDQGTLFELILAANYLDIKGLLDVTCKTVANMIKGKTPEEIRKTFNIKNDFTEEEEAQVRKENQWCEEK

target: Flag-tagged ΔF FBXW8 (F-box deletion mutant) (human) (UniProt Q8N3Y1); test: co-IP; T98G cells transfected with empty, Flag-tagged WT FBXW8 or ΔF FBXW8 plasmid; precipitated with Flag antibody; blotted for cyclin D1, SKP1, CUL1, CUL7, RBX1 and Flag

Row | binding | Substance
1 | binds weakly | Cullin 7 (CUL7), endogenous (from UniProt Q14999 1-1698)
2 | binds | cyclin D1 (endogenous) (from UniProt P24385 1-295)
3 | binds weakly | S-phase Kinase-associated Protein 1 (SKP1), endogenous (from UniProt P63208 1-163)

Results are given in words; binding and its absence hold for the method and conditions named. In cells and extracts the contact can be indirect. A result given as binding can be weak or reduced; the word gives no strength.
